From the supplement of paper PMC12819154, “High-throughput peptide-centric local stability assay extends protein–ligand identification to membrane proteins, tissues and bacteria” (Nature Structural & Molecular Biology, 2025)
This is one part of the list. Most entries show no effect beyond the scatter of the controls.

The chains behind the UniProt entries cited, without tags or fusion partners. Where a name states a change or a piece, a line headed by the entry shows the natural chain unless it says otherwise.
UniProt Q80VD1: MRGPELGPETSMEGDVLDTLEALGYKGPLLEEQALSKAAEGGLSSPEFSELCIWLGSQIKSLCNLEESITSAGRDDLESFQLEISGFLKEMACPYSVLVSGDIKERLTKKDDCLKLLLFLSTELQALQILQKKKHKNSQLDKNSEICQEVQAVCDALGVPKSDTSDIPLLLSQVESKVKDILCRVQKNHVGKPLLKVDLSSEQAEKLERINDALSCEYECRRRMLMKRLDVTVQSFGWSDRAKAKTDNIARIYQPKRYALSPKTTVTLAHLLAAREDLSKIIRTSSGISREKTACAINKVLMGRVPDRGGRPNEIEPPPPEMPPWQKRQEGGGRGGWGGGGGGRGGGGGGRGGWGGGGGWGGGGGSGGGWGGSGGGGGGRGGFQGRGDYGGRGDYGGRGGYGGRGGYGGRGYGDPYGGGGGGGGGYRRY
UniProt Q8BG05: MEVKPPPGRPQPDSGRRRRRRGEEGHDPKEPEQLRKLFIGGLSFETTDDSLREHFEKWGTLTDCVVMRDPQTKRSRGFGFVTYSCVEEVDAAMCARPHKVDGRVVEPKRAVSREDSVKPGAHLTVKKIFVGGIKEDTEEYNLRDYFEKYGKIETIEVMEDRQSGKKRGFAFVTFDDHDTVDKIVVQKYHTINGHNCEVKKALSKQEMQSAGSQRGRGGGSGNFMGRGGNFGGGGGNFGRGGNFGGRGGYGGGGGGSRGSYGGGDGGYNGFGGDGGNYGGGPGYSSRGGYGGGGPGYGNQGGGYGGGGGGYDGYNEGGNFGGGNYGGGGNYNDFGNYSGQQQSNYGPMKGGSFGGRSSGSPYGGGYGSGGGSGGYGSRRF
UniProt Q6Y7W8: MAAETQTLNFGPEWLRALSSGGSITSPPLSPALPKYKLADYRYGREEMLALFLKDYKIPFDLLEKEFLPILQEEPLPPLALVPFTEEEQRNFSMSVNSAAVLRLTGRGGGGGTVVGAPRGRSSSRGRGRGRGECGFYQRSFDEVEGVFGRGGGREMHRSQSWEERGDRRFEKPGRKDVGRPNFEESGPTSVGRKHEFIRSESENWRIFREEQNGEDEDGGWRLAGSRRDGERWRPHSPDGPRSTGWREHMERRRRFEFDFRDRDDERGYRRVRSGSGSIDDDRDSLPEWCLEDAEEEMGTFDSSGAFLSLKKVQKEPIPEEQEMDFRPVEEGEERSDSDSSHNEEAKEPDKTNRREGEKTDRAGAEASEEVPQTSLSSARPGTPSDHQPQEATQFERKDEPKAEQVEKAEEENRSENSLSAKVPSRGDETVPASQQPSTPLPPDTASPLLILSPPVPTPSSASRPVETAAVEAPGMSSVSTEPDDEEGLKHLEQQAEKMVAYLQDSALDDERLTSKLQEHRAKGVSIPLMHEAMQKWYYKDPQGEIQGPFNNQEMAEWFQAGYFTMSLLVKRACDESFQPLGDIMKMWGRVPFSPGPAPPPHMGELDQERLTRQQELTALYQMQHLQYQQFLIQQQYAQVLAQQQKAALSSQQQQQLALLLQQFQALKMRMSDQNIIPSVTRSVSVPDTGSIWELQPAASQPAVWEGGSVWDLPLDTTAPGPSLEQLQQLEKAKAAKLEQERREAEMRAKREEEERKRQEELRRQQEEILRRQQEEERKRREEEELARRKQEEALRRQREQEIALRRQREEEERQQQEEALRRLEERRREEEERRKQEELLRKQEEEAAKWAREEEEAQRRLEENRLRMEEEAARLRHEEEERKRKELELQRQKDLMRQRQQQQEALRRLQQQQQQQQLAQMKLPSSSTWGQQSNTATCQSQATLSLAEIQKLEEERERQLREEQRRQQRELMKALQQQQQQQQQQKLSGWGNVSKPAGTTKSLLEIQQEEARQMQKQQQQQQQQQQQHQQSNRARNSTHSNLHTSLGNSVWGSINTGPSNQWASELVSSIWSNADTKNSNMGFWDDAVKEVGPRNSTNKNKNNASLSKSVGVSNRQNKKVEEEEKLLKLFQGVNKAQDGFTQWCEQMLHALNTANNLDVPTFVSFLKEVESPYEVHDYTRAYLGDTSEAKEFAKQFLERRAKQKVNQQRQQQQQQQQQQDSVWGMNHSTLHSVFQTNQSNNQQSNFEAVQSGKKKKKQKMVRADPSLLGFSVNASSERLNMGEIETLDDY
UniProt Q6ZQI3: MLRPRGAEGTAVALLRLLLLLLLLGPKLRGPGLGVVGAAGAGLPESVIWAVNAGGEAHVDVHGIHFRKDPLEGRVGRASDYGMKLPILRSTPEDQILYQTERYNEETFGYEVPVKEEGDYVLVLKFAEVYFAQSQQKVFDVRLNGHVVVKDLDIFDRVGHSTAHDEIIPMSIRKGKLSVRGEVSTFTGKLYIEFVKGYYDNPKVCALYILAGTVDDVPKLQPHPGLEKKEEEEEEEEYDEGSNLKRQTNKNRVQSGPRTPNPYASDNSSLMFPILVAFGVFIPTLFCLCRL
UniProt Q80UY1: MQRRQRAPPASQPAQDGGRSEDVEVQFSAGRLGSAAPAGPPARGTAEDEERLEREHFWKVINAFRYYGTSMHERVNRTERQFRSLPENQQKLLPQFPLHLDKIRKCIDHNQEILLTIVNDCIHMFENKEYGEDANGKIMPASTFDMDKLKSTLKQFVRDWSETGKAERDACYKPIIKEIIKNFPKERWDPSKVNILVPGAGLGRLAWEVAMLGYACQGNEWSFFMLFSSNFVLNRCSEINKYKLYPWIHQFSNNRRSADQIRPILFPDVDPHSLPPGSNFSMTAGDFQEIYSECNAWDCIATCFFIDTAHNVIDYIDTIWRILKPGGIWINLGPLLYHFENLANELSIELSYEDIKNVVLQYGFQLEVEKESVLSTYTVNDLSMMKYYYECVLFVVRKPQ
UniProt Q8BG95: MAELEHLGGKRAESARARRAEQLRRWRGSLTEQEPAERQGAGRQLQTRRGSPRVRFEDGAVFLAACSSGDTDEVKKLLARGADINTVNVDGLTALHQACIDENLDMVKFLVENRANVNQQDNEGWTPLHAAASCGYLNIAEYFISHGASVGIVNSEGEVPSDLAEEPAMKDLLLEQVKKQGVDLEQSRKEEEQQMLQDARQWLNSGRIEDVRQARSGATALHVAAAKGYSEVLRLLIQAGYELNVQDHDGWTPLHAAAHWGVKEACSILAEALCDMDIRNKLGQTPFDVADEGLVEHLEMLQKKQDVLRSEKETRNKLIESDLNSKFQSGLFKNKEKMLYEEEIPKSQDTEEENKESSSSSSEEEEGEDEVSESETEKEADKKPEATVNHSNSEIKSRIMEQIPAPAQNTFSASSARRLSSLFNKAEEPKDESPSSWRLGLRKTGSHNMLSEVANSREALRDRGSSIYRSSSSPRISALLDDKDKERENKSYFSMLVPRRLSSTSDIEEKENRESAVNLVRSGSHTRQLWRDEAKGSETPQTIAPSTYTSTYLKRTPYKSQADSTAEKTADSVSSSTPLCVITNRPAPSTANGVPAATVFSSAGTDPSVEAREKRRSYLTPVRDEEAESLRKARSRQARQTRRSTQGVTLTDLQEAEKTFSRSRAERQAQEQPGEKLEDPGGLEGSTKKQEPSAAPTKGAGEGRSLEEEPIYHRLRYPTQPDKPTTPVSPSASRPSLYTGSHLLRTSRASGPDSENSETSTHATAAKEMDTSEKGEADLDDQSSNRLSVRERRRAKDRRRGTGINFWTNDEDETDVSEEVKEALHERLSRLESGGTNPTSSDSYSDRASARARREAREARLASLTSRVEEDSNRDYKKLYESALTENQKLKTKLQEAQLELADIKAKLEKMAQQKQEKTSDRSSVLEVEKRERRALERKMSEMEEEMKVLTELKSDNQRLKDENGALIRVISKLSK
UniProt Q80Y14: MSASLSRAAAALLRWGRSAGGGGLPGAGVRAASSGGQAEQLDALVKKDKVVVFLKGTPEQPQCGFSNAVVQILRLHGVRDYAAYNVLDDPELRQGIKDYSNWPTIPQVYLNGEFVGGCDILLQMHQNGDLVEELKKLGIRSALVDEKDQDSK
UniProt Q7M6Y3: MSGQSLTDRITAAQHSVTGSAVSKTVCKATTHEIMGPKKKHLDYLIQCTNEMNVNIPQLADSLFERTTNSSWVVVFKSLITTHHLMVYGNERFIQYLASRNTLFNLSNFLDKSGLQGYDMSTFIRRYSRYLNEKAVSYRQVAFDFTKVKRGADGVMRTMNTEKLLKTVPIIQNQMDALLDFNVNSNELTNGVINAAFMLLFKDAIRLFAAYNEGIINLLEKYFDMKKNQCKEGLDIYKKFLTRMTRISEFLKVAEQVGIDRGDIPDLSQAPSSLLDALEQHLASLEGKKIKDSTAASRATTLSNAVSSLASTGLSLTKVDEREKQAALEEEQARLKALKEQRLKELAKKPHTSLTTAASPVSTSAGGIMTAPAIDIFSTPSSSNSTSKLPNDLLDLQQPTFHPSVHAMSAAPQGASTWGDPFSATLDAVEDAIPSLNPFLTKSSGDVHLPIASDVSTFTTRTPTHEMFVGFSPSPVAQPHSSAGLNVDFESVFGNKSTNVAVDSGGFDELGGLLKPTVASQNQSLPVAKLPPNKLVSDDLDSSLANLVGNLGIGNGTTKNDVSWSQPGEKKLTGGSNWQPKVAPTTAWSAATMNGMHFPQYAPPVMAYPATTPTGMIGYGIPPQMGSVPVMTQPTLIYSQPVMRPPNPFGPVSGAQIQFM
UniProt Q78JW9: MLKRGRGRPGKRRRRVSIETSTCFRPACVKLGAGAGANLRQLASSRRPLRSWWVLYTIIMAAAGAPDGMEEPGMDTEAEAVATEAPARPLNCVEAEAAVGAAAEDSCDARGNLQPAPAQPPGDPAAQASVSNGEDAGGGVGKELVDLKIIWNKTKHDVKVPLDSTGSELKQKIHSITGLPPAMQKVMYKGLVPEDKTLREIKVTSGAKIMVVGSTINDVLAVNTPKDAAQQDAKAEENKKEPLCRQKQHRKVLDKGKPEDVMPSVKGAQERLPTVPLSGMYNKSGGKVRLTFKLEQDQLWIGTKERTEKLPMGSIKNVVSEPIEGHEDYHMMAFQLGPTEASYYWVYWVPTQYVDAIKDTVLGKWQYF
UniProt Q75N73: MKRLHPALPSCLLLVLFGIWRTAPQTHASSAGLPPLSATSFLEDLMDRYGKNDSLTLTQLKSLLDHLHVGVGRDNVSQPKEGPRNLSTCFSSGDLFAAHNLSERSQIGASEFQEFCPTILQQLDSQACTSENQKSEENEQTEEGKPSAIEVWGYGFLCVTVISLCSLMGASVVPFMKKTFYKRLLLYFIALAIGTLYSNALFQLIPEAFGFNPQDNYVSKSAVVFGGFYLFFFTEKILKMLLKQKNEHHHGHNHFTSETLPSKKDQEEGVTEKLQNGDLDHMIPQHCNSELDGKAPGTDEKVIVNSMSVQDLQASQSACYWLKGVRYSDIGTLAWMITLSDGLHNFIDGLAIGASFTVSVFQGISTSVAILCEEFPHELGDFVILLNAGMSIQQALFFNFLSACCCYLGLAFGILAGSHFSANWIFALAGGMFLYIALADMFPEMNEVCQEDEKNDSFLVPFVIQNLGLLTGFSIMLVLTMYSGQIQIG
UniProt Q6P8I4: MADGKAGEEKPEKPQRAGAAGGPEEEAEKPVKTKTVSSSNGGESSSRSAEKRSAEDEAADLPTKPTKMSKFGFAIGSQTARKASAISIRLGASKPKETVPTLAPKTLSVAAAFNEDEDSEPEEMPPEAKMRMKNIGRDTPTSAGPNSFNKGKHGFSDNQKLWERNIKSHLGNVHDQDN
UniProt Q8BGH2: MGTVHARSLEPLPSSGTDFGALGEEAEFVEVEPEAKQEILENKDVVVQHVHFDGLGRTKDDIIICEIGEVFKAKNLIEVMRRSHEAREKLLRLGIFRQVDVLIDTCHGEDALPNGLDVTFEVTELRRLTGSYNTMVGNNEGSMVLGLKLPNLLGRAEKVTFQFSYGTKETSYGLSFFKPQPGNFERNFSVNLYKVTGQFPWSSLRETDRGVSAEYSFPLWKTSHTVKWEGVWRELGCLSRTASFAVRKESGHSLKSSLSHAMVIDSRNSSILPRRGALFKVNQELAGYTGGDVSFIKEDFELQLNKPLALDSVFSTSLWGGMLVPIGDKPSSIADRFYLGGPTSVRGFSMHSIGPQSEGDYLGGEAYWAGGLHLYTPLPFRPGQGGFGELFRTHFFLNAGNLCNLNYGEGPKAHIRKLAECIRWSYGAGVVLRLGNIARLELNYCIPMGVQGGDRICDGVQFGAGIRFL
UniProt Q80XI4: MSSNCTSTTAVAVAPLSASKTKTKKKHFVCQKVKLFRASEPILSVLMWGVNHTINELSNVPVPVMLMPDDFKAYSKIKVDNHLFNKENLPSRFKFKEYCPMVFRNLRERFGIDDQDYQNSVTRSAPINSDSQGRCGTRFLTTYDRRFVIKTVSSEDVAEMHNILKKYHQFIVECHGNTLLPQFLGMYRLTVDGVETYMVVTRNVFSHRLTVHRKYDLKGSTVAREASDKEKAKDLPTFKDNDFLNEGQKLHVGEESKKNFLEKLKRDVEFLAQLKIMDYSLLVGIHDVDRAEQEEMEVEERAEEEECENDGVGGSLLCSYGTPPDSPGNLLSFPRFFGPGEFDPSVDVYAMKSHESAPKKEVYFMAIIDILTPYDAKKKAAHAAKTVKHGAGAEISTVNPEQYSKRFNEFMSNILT

Compound: CN[C@@H]1C[C@H]2O[C@@](C)([C@@H]1OC)n1c3ccccc3c3c4c(c5c6ccccc6n2c5c31)C(=O)NC4 [staurosporine]
Test: log2 fold change of pooled soluble protein (PISA), ligand vs vehicle (log2 ratio); higher = more thermally stabilized
Conditions: ligand concentration: 20 uM; assay format: PISA pool 52.9/55.5/58.6 C

Target | log2 fold change of pooled soluble protein
UniProt Q80VD1 | 0.143
UniProt Q8BG05 | -0.00323
UniProt Q8BGC0 | -0.167
UniProt Q6Y7W8 | -0.198
UniProt Q80V26 | 0.362
UniProt Q7TMC8 | 0.0133
UniProt Q6PGC1 | -0.022
UniProt Q80W22 | 0.0287
UniProt Q6ZQI3 | 0.0411
UniProt Q80UY1 | 0.0635
UniProt Q8BG95 | -0.354
UniProt Q80UG5 | -0.0833
UniProt Q80ZJ1 | 0.024
UniProt Q80Y14 | 0.335
UniProt Q6ZQ03 | 0.0643
UniProt Q7M6Y3 | -0.0485
UniProt Q78JW9 | 0.0858
UniProt Q6ZPZ3 | -0.0349

A section of the results above, as a working copy:
Target | log2 fold change of pooled soluble protein
UniProt Q80VD1 | 0.143
UniProt Q8BG05 | -0.00323
UniProt Q8BGC0 | -0.167
UniProt Q6Y7W8 | -0.198
UniProt Q80V26 | 0.362
UniProt Q7TMC8 | 0.0133
UniProt Q6PGC1 | -0.022
UniProt Q80W22 | 0.0287

(listing goes on)

Target | log2 fold change of pooled soluble protein
UniProt Q80TM6 | 0.459
UniProt Q6NZM9 | -0.14
UniProt Q8BGP6 | -0.0776
UniProt Q75N73 | -0.0684
UniProt Q80SY6 | -0.141
UniProt Q6P8I4 | 0.0463
UniProt Q6PDQ2 | -0.0109
UniProt Q8BGH2 | -0.168
UniProt Q80Y73 | 0.0972
UniProt Q8BG15 | 0.0336
UniProt Q6PIC6 | -0.00774
UniProt Q6P2B1 | -0.0322
UniProt Q8BFY9 | -0.0422
UniProt Q80XI4 | -0.0567
UniProt Q71LX4 | 0.0276
UniProt Q6P8J7 | -0.0842
UniProt Q6QD59 | -0.0464
